Measured values published in patent US20040002537A1, “Use of statins in the treatment of autoimmune disease” (priority 2002, published 2004).

How the values were obtained:
CNS infiltrates = details: C57BL/6 brains, 1 and 10 mg/kg, day 11 of treatment, versus PBS treated mice, FIG. 2
CIITA = details: SJL/J mice, 1 or 10 mg/kg oral for 12 days

CC(C)c1c(C(=O)Nc2ccccc2)c(-c2ccccc2)c(-c2ccc(F)cc2)n1CC[C@@H](O)C[C@@H](O)CC(=O)O [atorvastatin]
Number and size of CNS infiltrates (H&E staining) (CNS infiltrates): reduction in number and size of CNS infiltrates | CIITA PI transcript expression in brain (CIITA; FIG. 3B): dose dependent inhibition | CIITA PIII transcript expression in brain (CIITA; FIG. 3C): dose dependent inhibition | CIITA PIV transcript expression in brain (CIITA; FIG. 3D): dose dependent inhibition | Total expression of CIITA transcripts in brain (CIITA; day 10 of EAE, FIG. 3A): inhibited the total expression of CIITA transcripts in a dose response matter
